# Results from the supplement of paper PMC5949888.
# Most values lie at the floor of the assay. Slopes are relative: functional sequences can read slightly below zero.
# Test system: Saccharomyces cerevisiae PS128 hsf1 delta, HSF1(1-493) fusion
# Test: growth estimate (transactivation domain function in HSF1 fusion, heat-shock survival) (a.u. (slope of normalised read count over time)); higher = stronger growth at 37°C, i.e. more transactivation activity
# Conditions: library: random library
# Experimental: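 Random 60-nt DNA library encoding peptides of up to 20 aa, fused to the C-terminus of yeast HSF1 residues 1-493 (C-terminal TAD deleted) and expressed from the native HSF1 promoter on a CEN plasmid in hsf1-deleted S. cerevisiae PS128. Cells were selected at 37°C on -trp 5-FOA plates for 0, 2, 4, 6 and 8 days and amplicons were sequenced. Growth estimate is the slope of a robust linear fit of total-sum-normalised read counts (normalised to the first time point) over time, using at least 2 replicates. Sequences are classed functional (TAD activity) above a threshold of -0.13, set from stop-codon control sequences.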
row,Substance,growth estimate
1,IRPVE,< -0.25
2,SGHIDFCHDANAYGL,< -0.25
3,RLQ,< -0.25
4,GLFTGRDGGTNREVHIGRCD,< -0.25
5,FRATMGNTTRRIGSLVRIAS,< -0.25
6,LVGRMNNSRTEAKMYGHEGR,< -0.25
7,CSQRLGMFKEGDVYSRRPPR,< -0.25
8,SWSYLGAAGRRGN,< -0.25
9,LYLIPRGYGTCITDWPSAGE,< -0.25
10,KCNIKSPLETASYLPNGLLC,< -0.25
11,SFDRRGVTCKCGS,< -0.25
12,GSHV,< -0.25
13,YGVRDHVVSHV,< -0.25
14,TLYRTTE,< -0.25
15,EHEVFS,< -0.25
16,IPYGAFIF,< -0.25
17,RNAGLRVRSRSRGSAYENPP,< -0.25
18,QMSTQRQMVGPRCFLYAGSD,< -0.25
19,PWRSARYKRY,< -0.25
20,RVTGIRSLPSTPLGSE,< -0.25
21,WGPLDR,< -0.25
22,GCPAFIIVGPP,< -0.25
23,HCGRDQGRDKLQPIRRLSQR,< -0.25
24,AGIHDTWTYSRPRVLYQSPR,< -0.25

# Individual results from above:
# Entry for SFDRRGVTCKCGS under growth estimate: < -0.25
# Entry for SWSYLGAAGRRGN under growth estimate: < -0.25

# Continued:

row,Substance,growth estimate
1,CTCVIGDLYIRGSRNMFSSK,< -0.25
2,QVSQRTRRNRQCRLTRC,< -0.25
3,SLQGKVFVEISPRRTCHAWS,< -0.25
4,LAILEVAFPTARNVAEFRVA,< -0.25
5,GGGESACGPETRWLAVSVVR,< -0.25
6,IRRGRTASLNLNRKSESAGA,< -0.25
7,KGSRIKPAAFNLAWCKALGW,< -0.25
8,IQYPSLPQFHCH,< -0.25
9,VNGLYPWRNVA,< -0.25
10,YVDD,< -0.25
11,TCAMGAEWKLPPRPGTAPRP,< -0.25
12,EDPRPVHGSAFKYRMHGLGP,< -0.25
13,MLCVLELKVARK,< -0.25
14,PRFV,< -0.25
15,CGPSVGLVVRVFEPAQSGGH,< -0.25
16,SVISRRLVVQ,< -0.25
17,RSVSGNPRSIGTELPGNRCL,< -0.25
18,AKSVTALAEVISWADRIYGV,< -0.25
19,REPGDTKARQRLAGIFAPTR,< -0.25
20,RPMSLAIRRV,-0.147
21,SGFGP,< -0.25
22,AELRDPS,< -0.25
23,SPVGSASPGGYRVVA,< -0.25
24,ARAT,< -0.25

row,Substance,growth estimate
1,RMSIRNY,< -0.25
2,GSFKYAALLGSAGIT,< -0.25
3,KPDANELKMARKK,< -0.25
4,NMVRRETPLGARPVFEPMLW,-0.218
5,WLKVLATTRRVVNRTSDVKS,< -0.25
6,SAPPPETGSGYIRSNMRCLR,< -0.25
7,RDFLPKSS,< -0.25
8,GSGLQIWQRLGSAEEEPEYC,0.0791
9,KAGKKTYMRILTTLDAFTR,-0.246
10,DRIRYRAAILEIFQKLCPVT,< -0.25
11,GGPP,< -0.25
12,LWVTK,< -0.25
13,SSLGSSGAFSLGLGRGIRRD,< -0.25
14,RVLTFRLRAGLLKAYSVWCS,< -0.25
15,YNDRLSLTRFINYSTHPWVT,< -0.25
16,GRCDRLSLGRNLRTKGSLTV,< -0.25
17,QGRVVGGTRVRRGVTGAGRW,< -0.25
18,ISYAVSSGGEAPPA,< -0.25
19,PPPGTR,< -0.25
20,NGQPGSSPLSR,< -0.25
21,HLDGHGCRDPCLLSTNKSPL,< -0.25
22,VGVRQRSGQCEVPFEPKVPG,< -0.25
23,PGSNQGIEAMSRVLVPT,< -0.25
24,VIVQPIMALNNGVAVHRAIS,< -0.25

row,Substance,growth estimate
1,WVLVTHEGSKS,< -0.25
2,KTGRETYCEVISPILRCSAK,< -0.25
3,CSRVRNMGCGNQRSHFNCEA,< -0.25
4,LSSGFFSAGWNTVGKGI,< -0.25
5,MNQRGDLSSMWSDGEEVRAA,< -0.25
6,GVYRWRDHRAYTRLVFQ,< -0.25
7,DKNEIAWVGSRRQIDTPMH,< -0.25
8,SDGLEVKIPEGCNTSD,< -0.25
9,DSATRQPLTRVVWLKSLTIT,< -0.25
10,TIRVSHPFTGAQRSGCWHYR,< -0.25
11,DQKEPFGAIIRDQNP,< -0.25
12,TQLRRDKR,< -0.25
13,YENIGIQDN,-0.231
14,HRIWYSRAVGVIGEGLYNLP,< -0.25
15,TARV,< -0.25
16,RHGSQDQVGHM,< -0.25
17,SCDERFKLVFL,< -0.25
18,SWVVRRPPTRAERVDPSEYS,< -0.25
19,ELLDGPPTVHISSRMHRY,< -0.25
20,ELSDKDRT,< -0.25
21,EQCKLCPKSRSLIL,< -0.25
22,CGATSTGSSGPT,< -0.25
23,MLKDLAGRGDGVIVYLALST,< -0.25
24,KIKSL,< -0.25

row,Substance,growth estimate
1,GTYVVLFE,< -0.25
2,PAMYPPTGTAPPSNFKWVFD,-0.232
3,RCLLVTFNGSETCVSTYSCG,< -0.25
4,QIAGLTAW,< -0.25
5,YNRGGIKTQQGAGWYATVPR,-0.078
6,PISSGRRADPVAWGYDL,-0.237
7,HQC,< -0.25
8,PALEMWLGARIGPSPCQRSV,-0.246
9,FGHPIRREP,< -0.25
10,EDPNGRKNTLRRDLY,< -0.25
11,ILCLMKACHAPSL,< -0.25
12,VGCVMGPFRSERIATQDCGI,< -0.25
13,KTQRDGLQLESVQ,< -0.25
14,PIASQFLHVVSLRTWDSGEP,< -0.25
15,MLSDQSRPVQHLAGRPLKLH,< -0.25
16,LSTSTIYSV,< -0.25
17,PVGSVRP,< -0.25
18,GSLGRDAVPYP,< -0.25
19,NTAY,< -0.25
20,HGHVGRVWLKPYHLP,< -0.25
21,VVISKG,< -0.25
22,VTACTRTYRQFIRLC,< -0.25
23,RLPL,< -0.25
24,RKRTGISLV,0.101

# A run of entries of the results above:
row,Substance,growth estimate
2,QVSQRTRRNRQCRLTRC,< -0.25
3,SLQGKVFVEISPRRTCHAWS,< -0.25
4,LAILEVAFPTARNVAEFRVA,< -0.25
5,GGGESACGPETRWLAVSVVR,< -0.25
6,IRRGRTASLNLNRKSESAGA,< -0.25

# Further records follow:

row,Substance,growth estimate
1,LRGR,< -0.25
2,QGEVVVRAVYSVPSCLSCYK,< -0.25
3,KPTCPVLL,< -0.25
4,RDSSFHHTNFLLSAWRQR,< -0.25
5,LNPRRTLLLSGSVMWRAISP,< -0.25
6,GQEGRAYSKVVLRLAERTPM,< -0.25
7,RLSLSFPVYCQLSGRVT,< -0.25
8,RQGRHGRGHLPDSCPGHARL,< -0.25
9,PTACHFYHCDQV,< -0.25
10,CQDLQQHTDLVIQIIQP,< -0.25
11,VREYCLTCTVRYNKRTLVRG,< -0.25
12,SSVMVTHVLFLGHRTLCGD,< -0.25
13,NSVSPRVCAHAQA,< -0.25
14,GLLLGRNRSPPVSLSG,< -0.25
15,PLWSSST,< -0.25
16,LRVMEY,< -0.25
17,GCRASLKLENVVFRRVVSIE,< -0.25
18,FAASSGQDEGVITRHGL,< -0.25
19,LNANPSQVRLAHGIIGGILP,< -0.25
20,GMIMTQSGTSGFTSKCIGFG,-0.245
21,IRMSSG,< -0.25
22,LPAL,< -0.25
23,FASCRHVG,< -0.25
24,NPSNSRVVQQSVDRDPQSLP,< -0.25

row,Substance,growth estimate
1,VGNLTPGPL,< -0.25
2,LLSSSDFNSPGCSDRYTPIT,< -0.25
3,GSYRTMAKNHAPGY,< -0.25
4,SKAGARGS,< -0.25
5,KFALFYES,-0.25
6,QSIEFTSSAVLASSV,< -0.25
7,RHPGAV,< -0.25
8,NRRLTVECVNEVSFGNVPLR,< -0.25
9,WAYRWALGEESVTSSYNSSR,< -0.25
10,NIRYGCRSL,< -0.25
11,DSALRTDS,< -0.25
12,GRLPILLRYPRG,< -0.25
13,MTWCLSLCLGWRLTSAVPVV,< -0.25
14,LTNWSLKVRLPGCKQSNRDL,< -0.25
15,EVGHRMGVQHFTVRPTR,-0.246
16,DMLIG,< -0.25
17,PGDTRVL,< -0.25
18,SESSRTDAVYRQ,< -0.25
19,KPSARSTKIMWDANGEFRRS,< -0.25
20,AAKVRSRAPLIGRGPLHTRF,-0.245
21,FWWLSHC,< -0.25
22,VCAQSYIS,-0.25
23,CTHRGISNASAALLLKTSHV,< -0.25
24,PTRGVKSRAELQWANFVFWR,< -0.25

row,Substance,growth estimate
1,RAHTIEEGVYAGCKVRQFGS,-0.25
2,CYTI,< -0.25
3,CDCVS,< -0.25
4,RNKRWAGTRAMV,< -0.25
5,TMKCGLRRGMRRQHVRNRTR,< -0.25
6,GRIKTVATRKFPQG,< -0.25
7,VRSVFYFCGHLTGIEGCWGR,< -0.25
8,WRVLVIGLGWSGLR,< -0.25
9,CKNR,< -0.25
10,EQIGRSGM,-0.0054
11,EAGIKGVLWSRNRVTPPVEA,< -0.25
12,RVFRYVP,< -0.25
13,PQMLASELRTISFIPHV,< -0.25
14,ALTYNRVFSSGTSH,< -0.25
15,GTGPEAGLLVKTGLDAGKQA,< -0.25
16,KWWSTRSKRLIGKVVPLTSP,< -0.25
17,EAVFVNPAKE,< -0.25
18,SASLVRVMMRSSPGIRS,< -0.25
19,VAAEKLVSPFNKVAGKRFHF,< -0.25
20,QGYNTYFITQKVCATE,< -0.25
21,AGSADGSSLK,< -0.25
22,RSPEQVRRALVLQRFRSTTE,< -0.25
23,WPSINVGADLCGAMPV,< -0.25
24,TTRLVLNFYEAEEAGCGVTS,-0.09
